The values below come from the supplement of paper PMC11732987, “Enantioselective OTUD7B fragment discovery through chemoproteomics screening and high-throughput optimisation” (Communications Chemistry, 2025).

Chains of the proteins cited; added tags and fusions are not shown. Lines headed by an entry give the natural chain unless they say otherwise; changes in a name come on top. Residues count along the entry.
UniProt Q13322, 201-222: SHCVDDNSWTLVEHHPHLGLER
UniProt P49915: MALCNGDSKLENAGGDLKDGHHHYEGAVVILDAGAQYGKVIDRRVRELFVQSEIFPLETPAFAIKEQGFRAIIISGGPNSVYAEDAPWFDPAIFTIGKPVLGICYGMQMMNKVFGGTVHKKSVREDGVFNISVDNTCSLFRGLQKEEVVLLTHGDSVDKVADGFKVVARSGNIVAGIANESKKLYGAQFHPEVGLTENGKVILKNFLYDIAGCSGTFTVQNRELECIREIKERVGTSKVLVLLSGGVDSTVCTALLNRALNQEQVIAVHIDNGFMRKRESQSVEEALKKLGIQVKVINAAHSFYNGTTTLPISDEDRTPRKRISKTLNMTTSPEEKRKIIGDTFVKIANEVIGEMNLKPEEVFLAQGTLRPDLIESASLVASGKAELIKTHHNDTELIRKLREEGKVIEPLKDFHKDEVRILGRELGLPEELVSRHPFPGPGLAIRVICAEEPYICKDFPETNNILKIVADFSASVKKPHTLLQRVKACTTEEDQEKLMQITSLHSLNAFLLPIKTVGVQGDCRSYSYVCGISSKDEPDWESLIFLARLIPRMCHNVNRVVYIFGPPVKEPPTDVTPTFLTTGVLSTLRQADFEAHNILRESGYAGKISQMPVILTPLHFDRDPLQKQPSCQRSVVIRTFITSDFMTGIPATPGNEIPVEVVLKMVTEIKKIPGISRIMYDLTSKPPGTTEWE
UniProt P16383: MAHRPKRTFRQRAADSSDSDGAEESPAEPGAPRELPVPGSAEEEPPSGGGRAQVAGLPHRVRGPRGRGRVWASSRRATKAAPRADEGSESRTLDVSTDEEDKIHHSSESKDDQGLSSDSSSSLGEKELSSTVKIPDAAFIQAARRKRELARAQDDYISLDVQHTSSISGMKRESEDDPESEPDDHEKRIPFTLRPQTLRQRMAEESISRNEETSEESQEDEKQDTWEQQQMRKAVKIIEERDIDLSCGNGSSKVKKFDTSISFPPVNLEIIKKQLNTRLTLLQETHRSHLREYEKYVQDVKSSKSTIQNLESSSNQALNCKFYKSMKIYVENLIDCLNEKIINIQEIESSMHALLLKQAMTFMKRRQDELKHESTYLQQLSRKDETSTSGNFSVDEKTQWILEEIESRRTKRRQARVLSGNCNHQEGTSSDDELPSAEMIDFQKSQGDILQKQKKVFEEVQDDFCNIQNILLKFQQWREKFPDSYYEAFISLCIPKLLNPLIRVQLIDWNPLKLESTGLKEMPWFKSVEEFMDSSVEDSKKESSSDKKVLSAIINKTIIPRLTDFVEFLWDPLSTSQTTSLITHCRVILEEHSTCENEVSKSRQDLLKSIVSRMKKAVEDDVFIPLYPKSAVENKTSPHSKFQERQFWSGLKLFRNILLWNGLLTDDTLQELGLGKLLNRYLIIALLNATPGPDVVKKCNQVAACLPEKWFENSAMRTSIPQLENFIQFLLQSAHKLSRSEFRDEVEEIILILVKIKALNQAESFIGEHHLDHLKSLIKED
UniProt Q8TD30: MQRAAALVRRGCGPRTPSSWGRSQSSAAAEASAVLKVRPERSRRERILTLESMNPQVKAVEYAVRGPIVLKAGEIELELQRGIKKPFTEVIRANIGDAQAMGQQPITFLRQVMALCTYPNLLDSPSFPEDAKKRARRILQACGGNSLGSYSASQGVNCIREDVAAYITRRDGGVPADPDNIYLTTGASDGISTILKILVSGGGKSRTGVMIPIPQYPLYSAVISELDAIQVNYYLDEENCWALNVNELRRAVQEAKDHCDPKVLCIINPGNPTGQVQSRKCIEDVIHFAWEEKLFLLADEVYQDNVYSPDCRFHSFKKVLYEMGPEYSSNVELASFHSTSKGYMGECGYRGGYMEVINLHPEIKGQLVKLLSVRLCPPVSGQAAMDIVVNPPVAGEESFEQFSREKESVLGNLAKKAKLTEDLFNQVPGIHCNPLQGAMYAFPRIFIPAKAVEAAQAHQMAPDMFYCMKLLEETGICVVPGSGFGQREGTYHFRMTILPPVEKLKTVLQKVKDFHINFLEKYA
UniProt P08754, whole entry, looked up: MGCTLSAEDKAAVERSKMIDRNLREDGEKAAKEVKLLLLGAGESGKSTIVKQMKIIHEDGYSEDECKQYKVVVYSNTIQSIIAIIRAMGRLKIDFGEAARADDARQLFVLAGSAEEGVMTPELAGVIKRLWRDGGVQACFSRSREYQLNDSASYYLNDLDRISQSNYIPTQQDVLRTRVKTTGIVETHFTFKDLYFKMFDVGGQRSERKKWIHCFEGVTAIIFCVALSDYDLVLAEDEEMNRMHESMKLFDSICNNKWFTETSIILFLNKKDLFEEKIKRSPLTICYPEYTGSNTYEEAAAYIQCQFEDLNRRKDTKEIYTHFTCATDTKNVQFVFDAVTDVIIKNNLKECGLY
UniProt Q03113, whole entry, looked up: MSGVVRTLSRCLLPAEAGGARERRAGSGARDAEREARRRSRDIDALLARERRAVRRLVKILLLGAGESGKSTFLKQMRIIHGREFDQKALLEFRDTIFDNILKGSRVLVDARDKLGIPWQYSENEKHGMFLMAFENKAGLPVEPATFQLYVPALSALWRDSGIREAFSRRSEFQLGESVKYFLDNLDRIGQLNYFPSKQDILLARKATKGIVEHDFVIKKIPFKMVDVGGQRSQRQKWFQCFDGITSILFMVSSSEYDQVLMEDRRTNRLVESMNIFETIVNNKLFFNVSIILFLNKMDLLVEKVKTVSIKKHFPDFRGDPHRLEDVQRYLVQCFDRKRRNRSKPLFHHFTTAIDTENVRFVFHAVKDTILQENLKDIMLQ
UniProt Q9NVN8: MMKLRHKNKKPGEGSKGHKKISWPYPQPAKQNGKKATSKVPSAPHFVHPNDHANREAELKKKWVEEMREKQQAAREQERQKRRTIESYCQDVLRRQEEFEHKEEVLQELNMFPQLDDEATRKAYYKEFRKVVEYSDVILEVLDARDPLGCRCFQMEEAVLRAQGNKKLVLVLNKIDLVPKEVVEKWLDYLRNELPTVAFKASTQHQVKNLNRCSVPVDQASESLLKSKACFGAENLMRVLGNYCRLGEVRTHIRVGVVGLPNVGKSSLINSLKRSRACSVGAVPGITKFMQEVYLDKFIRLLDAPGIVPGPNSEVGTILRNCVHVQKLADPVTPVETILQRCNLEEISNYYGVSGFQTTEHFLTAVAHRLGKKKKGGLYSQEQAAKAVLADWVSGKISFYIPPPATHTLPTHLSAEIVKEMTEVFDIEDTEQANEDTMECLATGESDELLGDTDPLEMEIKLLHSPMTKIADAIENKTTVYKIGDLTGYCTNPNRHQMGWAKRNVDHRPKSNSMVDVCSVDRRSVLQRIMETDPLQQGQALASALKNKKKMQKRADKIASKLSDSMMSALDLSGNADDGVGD
UniProt Q9BYB4: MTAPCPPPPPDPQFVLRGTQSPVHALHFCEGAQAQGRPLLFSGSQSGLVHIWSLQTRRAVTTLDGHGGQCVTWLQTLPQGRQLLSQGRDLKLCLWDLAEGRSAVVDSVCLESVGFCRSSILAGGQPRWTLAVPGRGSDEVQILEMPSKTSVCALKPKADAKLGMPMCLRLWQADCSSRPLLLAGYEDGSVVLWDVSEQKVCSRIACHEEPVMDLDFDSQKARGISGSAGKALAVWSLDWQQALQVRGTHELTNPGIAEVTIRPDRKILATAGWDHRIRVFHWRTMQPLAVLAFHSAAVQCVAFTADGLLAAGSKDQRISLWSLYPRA
UniProt Q92917: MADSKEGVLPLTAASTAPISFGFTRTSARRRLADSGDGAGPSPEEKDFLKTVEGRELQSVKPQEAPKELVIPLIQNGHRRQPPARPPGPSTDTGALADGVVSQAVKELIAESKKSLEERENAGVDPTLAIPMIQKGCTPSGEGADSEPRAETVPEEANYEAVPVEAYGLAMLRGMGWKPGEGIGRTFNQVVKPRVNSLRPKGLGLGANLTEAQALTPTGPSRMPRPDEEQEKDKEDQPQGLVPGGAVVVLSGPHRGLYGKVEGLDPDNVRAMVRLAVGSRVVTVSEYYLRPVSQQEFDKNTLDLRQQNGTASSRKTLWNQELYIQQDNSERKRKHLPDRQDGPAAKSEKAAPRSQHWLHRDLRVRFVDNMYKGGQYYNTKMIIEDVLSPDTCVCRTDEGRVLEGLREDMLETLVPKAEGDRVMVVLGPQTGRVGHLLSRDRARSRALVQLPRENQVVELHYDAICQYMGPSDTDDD
UniProt P49841: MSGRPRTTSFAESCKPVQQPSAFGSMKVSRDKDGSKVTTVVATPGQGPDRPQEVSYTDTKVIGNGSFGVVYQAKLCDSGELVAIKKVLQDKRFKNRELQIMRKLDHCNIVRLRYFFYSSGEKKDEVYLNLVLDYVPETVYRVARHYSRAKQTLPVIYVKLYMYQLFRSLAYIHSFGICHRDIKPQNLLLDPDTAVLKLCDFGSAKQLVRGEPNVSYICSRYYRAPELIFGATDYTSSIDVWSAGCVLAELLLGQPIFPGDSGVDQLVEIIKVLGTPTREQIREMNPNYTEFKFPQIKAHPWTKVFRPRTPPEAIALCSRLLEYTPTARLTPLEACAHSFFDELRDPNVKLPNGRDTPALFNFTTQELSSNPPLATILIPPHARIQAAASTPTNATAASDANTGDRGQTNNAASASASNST
UniProt Q08379: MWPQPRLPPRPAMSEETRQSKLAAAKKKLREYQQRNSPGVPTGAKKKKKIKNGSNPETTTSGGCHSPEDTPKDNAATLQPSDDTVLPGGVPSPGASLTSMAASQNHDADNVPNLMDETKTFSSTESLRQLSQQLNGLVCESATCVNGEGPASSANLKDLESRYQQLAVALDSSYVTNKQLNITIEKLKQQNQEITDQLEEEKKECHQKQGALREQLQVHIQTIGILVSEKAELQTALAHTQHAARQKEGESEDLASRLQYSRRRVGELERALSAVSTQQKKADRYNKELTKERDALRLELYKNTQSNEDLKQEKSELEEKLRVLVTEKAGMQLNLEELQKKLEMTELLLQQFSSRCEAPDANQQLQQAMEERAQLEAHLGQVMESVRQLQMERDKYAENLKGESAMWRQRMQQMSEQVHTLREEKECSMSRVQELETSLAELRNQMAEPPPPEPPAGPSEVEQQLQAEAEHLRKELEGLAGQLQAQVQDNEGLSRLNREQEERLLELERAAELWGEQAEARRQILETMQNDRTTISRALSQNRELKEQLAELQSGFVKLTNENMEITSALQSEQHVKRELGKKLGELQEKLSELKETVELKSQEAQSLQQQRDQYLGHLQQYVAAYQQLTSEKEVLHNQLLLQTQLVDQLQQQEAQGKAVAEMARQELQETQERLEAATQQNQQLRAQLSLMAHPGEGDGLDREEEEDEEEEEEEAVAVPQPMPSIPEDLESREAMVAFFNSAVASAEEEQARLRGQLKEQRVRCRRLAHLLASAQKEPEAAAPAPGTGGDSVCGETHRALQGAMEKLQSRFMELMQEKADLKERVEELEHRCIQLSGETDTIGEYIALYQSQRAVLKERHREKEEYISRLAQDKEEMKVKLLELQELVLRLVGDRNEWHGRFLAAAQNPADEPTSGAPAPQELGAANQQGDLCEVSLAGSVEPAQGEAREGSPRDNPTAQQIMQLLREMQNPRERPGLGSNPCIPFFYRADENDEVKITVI
UniProt Q9HCG7: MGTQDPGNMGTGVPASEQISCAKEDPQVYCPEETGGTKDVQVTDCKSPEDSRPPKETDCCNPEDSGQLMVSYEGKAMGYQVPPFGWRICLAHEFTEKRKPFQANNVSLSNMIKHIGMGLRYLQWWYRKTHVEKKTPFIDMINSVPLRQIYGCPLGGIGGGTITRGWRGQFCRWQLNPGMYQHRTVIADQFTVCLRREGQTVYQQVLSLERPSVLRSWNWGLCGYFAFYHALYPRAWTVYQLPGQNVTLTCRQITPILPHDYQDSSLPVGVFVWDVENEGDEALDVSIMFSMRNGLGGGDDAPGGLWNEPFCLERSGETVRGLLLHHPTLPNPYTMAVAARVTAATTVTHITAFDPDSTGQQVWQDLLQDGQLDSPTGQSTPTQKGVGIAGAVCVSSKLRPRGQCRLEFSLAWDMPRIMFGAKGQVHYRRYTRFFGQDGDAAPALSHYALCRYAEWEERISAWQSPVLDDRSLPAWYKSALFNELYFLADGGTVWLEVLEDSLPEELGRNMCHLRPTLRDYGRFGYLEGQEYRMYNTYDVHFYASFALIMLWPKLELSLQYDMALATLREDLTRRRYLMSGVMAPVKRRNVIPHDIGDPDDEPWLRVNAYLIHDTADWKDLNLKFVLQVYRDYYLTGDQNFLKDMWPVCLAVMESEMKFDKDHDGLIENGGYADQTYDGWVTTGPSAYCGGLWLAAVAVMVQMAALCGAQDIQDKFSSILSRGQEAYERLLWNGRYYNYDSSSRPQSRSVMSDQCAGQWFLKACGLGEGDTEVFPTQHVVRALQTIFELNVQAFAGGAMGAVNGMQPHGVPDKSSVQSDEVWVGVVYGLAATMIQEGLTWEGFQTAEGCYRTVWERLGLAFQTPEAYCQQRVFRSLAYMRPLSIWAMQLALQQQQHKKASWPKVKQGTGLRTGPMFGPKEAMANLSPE

Compound in assay [1]: ClCC(=O)N[C@@H]1CCCc2ccccc12
Put plainly: log2 mean competition ratio of IA-DTB cysteine labelling (DMSO/compound) (log2 ratio); higher = stronger cysteine engagement by compound. The conditions noted are these: treatment time: 4 h, cell line lysate: HEK293T. The method, then:
(§1)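 IA-DTB competitive cysteine chemoproteomics in HEK293T RIPA lysate. Lysates were treated with compound 29 or 30 at 50 or 200 µM for 4 h, then IA-DTB (500 µM, 1 h), trypsin-digested, NeutrAvidin-enriched and analysed by diaPASEF. Competition ratio = intensity DMSO / intensity compound (n=4 treated, n=64 DMSO); binding: mean log2 CR ≥ 1 and p ≤ 0.05 plus QC filters. Target is the cysteine site.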

Compound in assay [2]: ClCC(=O)N[C@H]1CCCc2ccccc12
The assay is described as above. Particulars: treatment time: 4 h, cell line lysate: HEK293T. The method, then:
as §1

Some of the results follow. The data scatter; read single values as rough.

On to GRB10 C380 (UniProt Q13322), for which the “log2 mean competition ratio” value was -0.0399 in assay [1] (50 µM), 0.202 in assay [1] (200 µM), -0.118 in assay [2] (50 µM) and 0.261 in assay [2] (200 µM).

Regarding GMPS C489 (UniProt P49915), the “log2 mean competition ratio” value in assay [1] (50 µM) was -0.109; in assay [1] (200 µM), -0.146; in assay [2] (50 µM) it was -0.139; in assay [2] (200 µM), -0.202.

For GCFC2 C595 (UniProt P16383), the “log2 mean competition ratio” value in assay [1] (50 µM) is -0.184; in assay [1] (200 µM) it was 0.0757; in assay [2] (50 µM), -0.504; in assay [2] (200 µM), -0.0181.

For GRB10 C6 (UniProt Q13322), the “log2 mean competition ratio” value in assay [1] (50 µM) is 0.0645; in assay [1] (200 µM), 0.00797; in assay [2] (50 µM) it was -0.119; in assay [2] (200 µM), -0.197.

In the case of GPT2 C347 (UniProt Q8TD30), the “log2 mean competition ratio” value in assay [1] (50 µM) was -0.185; in assay [1] (200 µM), -0.281; in assay [2] (50 µM), -0.0184; in assay [2] (200 µM), -0.0509.

Take GPAT3;GPAT4 C266;(C285): the “log2 mean competition ratio” value in assay [1] (50 µM) was 0.156; in assay [1] (200 µM) it was 0.265; in assay [2] (50 µM), -0.431; in assay [2] (200 µM) it was -0.00801.

In the case of GNAI3 C351 (UniProt P08754), the “log2 mean competition ratio” value in assay [1] (50 µM) was -0.012; in assay [1] (200 µM), -0.0648; in assay [2] (50 µM) it was 0.0331; in assay [2] (200 µM), 0.0412.

For GNA12 C11 (UniProt Q03113), the “log2 mean competition ratio” value in assay [1] (50 µM) was -6.53e-05; in assay [1] (200 µM) it was 0.195; in assay [2] (50 µM), -0.148; in assay [2] (200 µM) it was -0.101.

With GNL3L C518 (UniProt Q9NVN8), the “log2 mean competition ratio” value was -0.0185 in assay [1] (50 µM), 0.155 in assay [1] (200 µM), 0.196 in assay [2] (50 µM) and 0.303 in assay [2] (200 µM).

Take GPS1 C175: the “log2 mean competition ratio” value in assay [1] (50 µM) was -0.0837; in assay [1] (200 µM), 0.524; in assay [2] (50 µM), -0.322; in assay [2] (200 µM), 0.327.

In the case of GNB1L C206 (UniProt Q9BYB4), the “log2 mean competition ratio” value in assay [1] (50 µM) is 0.387; in assay [1] (200 µM), -0.191; in assay [2] (50 µM), 0.05; in assay [2] (200 µM), -0.0192.

On to GPKOW C137 (UniProt Q92917), for which the “log2 mean competition ratio” value in assay [1] (50 µM) stood at 0.21; in assay [1] (200 µM), 0.056; in assay [2] (50 µM) it was 0.0623; in assay [2] (200 µM) it was 0.109.

Consider GRB10 C203 (UniProt Q13322), for which the “log2 mean competition ratio” value is 0.534 in assay [1] (50 µM), 0.261 in assay [1] (200 µM), -0.204 in assay [2] (50 µM) and -0.0937 in assay [2] (200 µM).

In the case of GSK3B C317 (UniProt P49841), the “log2 mean competition ratio” value in assay [1] (50 µM) was 0.105; in assay [1] (200 µM), 0.141; in assay [2] (50 µM), -0.106; in assay [2] (200 µM), 0.101.

GOLGA2 C427 (UniProt Q08379): the “log2 mean competition ratio” value in assay [1] (50 µM) is -0.148; in assay [1] (200 µM), -0.374; in assay [2] (50 µM), -0.413; in assay [2] (200 µM), -0.0447.

Turning to GBA2 C30 (UniProt Q9HCG7), the “log2 mean competition ratio” value in assay [1] (50 µM) is -0.263; in assay [1] (200 µM) it was -0.198; in assay [2] (50 µM) it was 0.231; in assay [2] (200 µM), -0.293.
